The experiment deals with p62 (human (endogenous in Huh7)) (UniProt Q13501). Briefly: co-IP; Huh7 cells transfected with CD44 siRNA or control siRNA for 48 h, lysed in ice-cold IP buffer; 500 ul lysate with 2 ug antibody (caspase-1, p62, LC3B, NLRP3) or IgG control and protein A/G beads at 4 °C; washed three times; immunoblot.

Amino acid sequences for entries named in this document (tags omitted).
UniProt P29466: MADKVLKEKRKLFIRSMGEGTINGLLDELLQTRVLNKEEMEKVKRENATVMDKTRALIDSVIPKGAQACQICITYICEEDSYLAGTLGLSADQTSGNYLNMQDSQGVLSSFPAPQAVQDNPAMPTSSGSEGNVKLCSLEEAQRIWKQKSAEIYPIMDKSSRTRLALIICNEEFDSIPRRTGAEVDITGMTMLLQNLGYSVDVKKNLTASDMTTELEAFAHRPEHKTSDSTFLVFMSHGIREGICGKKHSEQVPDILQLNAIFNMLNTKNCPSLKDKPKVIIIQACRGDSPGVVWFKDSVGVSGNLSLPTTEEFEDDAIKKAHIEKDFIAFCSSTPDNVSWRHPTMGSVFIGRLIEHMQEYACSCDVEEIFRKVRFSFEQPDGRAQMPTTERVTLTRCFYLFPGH

No constants are given. Whether binding was seen depends on the method and setting. Binding seen in cells or lysates may run through a third protein. Some results given as binding are weak or reduced against the parent protein; the word gives no strength.

With caspase-1 (from UniProt P29466 1-404), the binding result was “binds”.

The values are drawn from publication PMC7652828.
